The values that follow come from paper PMC10261145, “Ceramide sensing by human SPT-ORMDL complex for establishing sphingolipid homeostasis” (Nature Communications, 2023).

In this assay the target is T1, serine palmitoyltransferase (SPT) complex (SPTLC1, SPTLC2, SPTssa) (human) (UniProt O15269+O15270+Q969W0).
T1 sequence 1: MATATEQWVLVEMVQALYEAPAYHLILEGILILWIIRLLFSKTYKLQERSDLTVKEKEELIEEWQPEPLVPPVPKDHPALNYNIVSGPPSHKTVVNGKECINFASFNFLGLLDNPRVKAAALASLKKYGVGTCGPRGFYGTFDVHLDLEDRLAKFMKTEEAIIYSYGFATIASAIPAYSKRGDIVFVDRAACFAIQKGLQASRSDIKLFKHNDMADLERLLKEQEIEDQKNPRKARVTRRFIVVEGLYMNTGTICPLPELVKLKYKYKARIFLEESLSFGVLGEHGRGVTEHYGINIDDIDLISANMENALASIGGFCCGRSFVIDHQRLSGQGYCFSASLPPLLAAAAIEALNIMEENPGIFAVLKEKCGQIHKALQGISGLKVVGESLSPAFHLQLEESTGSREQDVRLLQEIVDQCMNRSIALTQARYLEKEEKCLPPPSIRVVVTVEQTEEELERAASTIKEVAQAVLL
T1 sequence 2: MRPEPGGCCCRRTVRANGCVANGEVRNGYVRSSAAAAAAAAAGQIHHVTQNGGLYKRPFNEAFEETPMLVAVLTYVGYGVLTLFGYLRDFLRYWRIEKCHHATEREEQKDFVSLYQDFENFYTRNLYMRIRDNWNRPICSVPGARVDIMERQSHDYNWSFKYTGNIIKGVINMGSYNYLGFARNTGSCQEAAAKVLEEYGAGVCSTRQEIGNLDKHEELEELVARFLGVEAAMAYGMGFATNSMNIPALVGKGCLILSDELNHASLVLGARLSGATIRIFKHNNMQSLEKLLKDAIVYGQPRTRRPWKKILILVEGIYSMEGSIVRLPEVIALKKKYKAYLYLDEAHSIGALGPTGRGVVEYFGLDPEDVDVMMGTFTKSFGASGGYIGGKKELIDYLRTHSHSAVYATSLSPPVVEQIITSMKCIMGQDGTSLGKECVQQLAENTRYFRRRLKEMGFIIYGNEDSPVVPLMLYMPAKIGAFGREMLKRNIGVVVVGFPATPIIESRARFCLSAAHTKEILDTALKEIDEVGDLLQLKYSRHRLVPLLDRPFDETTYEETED
T1 sequence 3: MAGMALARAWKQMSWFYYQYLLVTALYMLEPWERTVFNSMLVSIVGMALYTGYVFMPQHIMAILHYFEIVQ
Nature of the assay: co-purification (anti-Flag affinity resin, then SEC; Coomassie-stained SDS-PAGE); subunits co-expressed in HEK293F; membranes solubilized with 1% GDN; anti-Flag G1 resin, elution with Flag peptide, Superose 6 in 25 mM HEPES pH 7.5, 150 mM NaCl, 0.01% GDN; which subunit carries the Flag tag is not stated.

These are yes or no findings as the source states them, for the method shown. Some binding calls cover weakened binding; strength is not graded here.

B1: ORMDL3 with Val16 replaced by arginine (protein, UniProt Q8N138 1-153)
chain: MNVGTAHSEVNPNTRRMNSRGIWLSYVLAIGLLHIVLLSIPFVSVPVVWTLTNLIHNMGMYIFLHTVKGTPFETPDQGKARLLTHWEQMDYGVQFTASRKFLTITPIVLYFLTSFYTKYDQIHFVLNTVSLMSVLIPKLPQLHGVRIFGINKY
Consider B1, for which the binding entry was “binds”.

B2: ORMDL3 with Phe63 mutated to arginine (protein, UniProt Q8N138 1-153)
chain: MNVGTAHSEVNPNTRVMNSRGIWLSYVLAIGLLHIVLLSIPFVSVPVVWTLTNLIHNMGMYIRLHTVKGTPFETPDQGKARLLTHWEQMDYGVQFTASRKFLTITPIVLYFLTSFYTKYDQIHFVLNTVSLMSVLIPKLPQLHGVRIFGINKY
Regarding B2, the binding entry is “binds”.

B3: ORMDL3-H85A (protein, UniProt Q8N138 1-153)
chain: MNVGTAHSEVNPNTRVMNSRGIWLSYVLAIGLLHIVLLSIPFVSVPVVWTLTNLIHNMGMYIFLHTVKGTPFETPDQGKARLLTAWEQMDYGVQFTASRKFLTITPIVLYFLTSFYTKYDQIHFVLNTVSLMSVLIPKLPQLHGVRIFGINKY
As for B3, the binding entry is reported as “binds”.

B4: ORMDL3-N13A (natural protein, human, UniProt Q8N138 1-153, looked up)
chain: MNVGTAHSEVNPATRVMNSRGIWLSYVLAIGLLHIVLLSIPFVSVPVVWTLTNLIHNMGMYIFLHTVKGTPFETPDQGKARLLTHWEQMDYGVQFTASRKFLTITPIVLYFLTSFYTKYDQIHFVLNTVSLMSVLIPKLPQLHGVRIFGINKY
notes: ORMDL3, human, full-length cDNA with N13A; also called ORMDL3-N13A mutant; source: HEK293F, transiently co-transfected with the SPT subunits, purified as a complex (anti-Flag resin, SEC, GDN)
For the molecule B4, the binding result is on record as “binds”.

B5: ORMDL1 (protein, UniProt Q9P0S3 1-153)
chain: MNVGVAHSEVNPNTRVMNSRGMWLTYALGVGLLHIVLLSIPFFSVPVAWTLTNIIHNLGMYVFLHAVKGTPFETPDQGKARLLTHWEQLDYGVQFTSSRKFFTISPIILYFLASFYTKYDPTHFILNTASLLSVLIPKMPQLHGVRIFGINKY
As for B5, the binding entry is on record as “binds”.
